Test results taken from PMC10457312.
No constants are given. Whether binding was seen depends on the method and setting. Binding seen in cells or lysates may run through a third protein. Some binding calls cover weakened binding; strength is not graded here. For some assays here: Tags and fused reporters may be left off the sequences shown. Values belong to the molecule of their own block, whether it stands above or below them.

Chains of the proteins cited; added tags and fusions are not shown.
UniProt P35222: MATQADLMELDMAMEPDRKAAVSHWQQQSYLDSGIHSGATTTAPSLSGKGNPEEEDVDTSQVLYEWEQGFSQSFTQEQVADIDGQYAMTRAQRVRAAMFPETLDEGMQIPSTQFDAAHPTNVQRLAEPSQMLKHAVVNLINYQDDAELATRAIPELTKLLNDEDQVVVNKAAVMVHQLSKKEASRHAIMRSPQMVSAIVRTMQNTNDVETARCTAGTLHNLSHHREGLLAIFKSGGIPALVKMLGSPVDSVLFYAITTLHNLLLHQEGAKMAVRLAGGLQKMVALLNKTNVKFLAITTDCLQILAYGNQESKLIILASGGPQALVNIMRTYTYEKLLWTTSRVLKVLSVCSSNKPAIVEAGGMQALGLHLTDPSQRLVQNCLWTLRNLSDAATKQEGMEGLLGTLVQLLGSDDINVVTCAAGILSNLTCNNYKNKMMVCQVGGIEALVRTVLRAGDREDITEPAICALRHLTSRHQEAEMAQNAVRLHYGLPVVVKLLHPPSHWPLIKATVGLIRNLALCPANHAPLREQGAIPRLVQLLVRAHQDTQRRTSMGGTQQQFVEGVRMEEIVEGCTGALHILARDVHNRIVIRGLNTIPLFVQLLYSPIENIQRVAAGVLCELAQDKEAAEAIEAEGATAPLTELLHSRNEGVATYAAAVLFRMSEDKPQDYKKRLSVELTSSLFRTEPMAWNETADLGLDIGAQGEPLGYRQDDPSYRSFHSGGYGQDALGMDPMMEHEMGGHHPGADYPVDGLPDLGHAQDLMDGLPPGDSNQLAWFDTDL

How the values were obtained:
[1] = biological target: T1, Regenerating islet-derived protein 1-alpha (REG1α), Flag-tagged, exogenously expressed (human) (UniProt P05451); experiment: co-IP; exogenous: anti-Flag antibody on lysate of CRC cells expressing Flag-REG1α, IgG as negative control; IP lysis buffer, antibody overnight at 4 °C, Protein A/G magnetic beads, western blot
T1 sequence: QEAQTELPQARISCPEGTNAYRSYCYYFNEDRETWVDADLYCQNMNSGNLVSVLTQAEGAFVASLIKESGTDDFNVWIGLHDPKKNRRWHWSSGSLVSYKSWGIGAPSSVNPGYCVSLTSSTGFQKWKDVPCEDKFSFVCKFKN

[2] = biological target: β-catenin, endogenous (human (endogenous in CRC cells)) (UniProt P35222); experiment: co-IP; endogenous: anti-β-catenin antibody on CRC cell lysate, IgG as negative control; IP lysis buffer, antibody overnight at 4 °C, Protein A/G magnetic beads, western blot

- binding [1]: binds
Molecule: β-catenin, endogenous (from UniProt P35222 1-781)

- binding [2]: binds
B1: Regenerating islet-derived protein 1-alpha (REG1α), endogenous (protein, UniProt P05451 23-166)
chain: T1 sequence
